US20060178431A1, “Chemotherapeutic agents for the control of plant and animal diseases” (priority 2004, published 2006)
For at least one compound, name, drawing or mass did not settle the structure.

Test system: bacterial spot on O'Henry peach
Assay: Control of bacterial spot on peach, Ft. Valley, Georgia 2005
Assay type: in vivo
Details: conclusion of the trial

## CN(C)[C@@H]1C(O)=C(C(N)=O)C(=O)[C@@]2(O)C(O)=C3C(=O)c4c(O)cccc4[C@@](C)(O)[C@H]3[C@H](O)[C@@H]12 [oxytetracycline]
  Disease reductions compared with the untreated check: statistically significant disease reductions
